Assay results from publication PMC12639119.
No constants are given. Whether binding was seen depends on the method and setting. In cells and extracts the contact can be indirect. Some binding calls cover weakened binding; strength is not graded here. Where a sequence is shown, tags or fusion partners need not be part of it.

T1: … TO RED LIGHT REDUCED 1 (SRR1) fused to GFP (Arabidopsis thaliana) (UniProt Q8GWZ6)
T1 sequence: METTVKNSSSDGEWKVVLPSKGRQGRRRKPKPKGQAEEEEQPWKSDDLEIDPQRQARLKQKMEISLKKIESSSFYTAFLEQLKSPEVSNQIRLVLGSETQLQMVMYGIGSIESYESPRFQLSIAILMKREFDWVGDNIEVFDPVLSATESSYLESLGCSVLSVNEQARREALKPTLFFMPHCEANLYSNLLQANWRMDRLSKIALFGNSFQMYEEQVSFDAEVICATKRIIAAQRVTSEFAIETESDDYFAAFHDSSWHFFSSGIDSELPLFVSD

T2: 3xFLAG-tagged MPSR1 with the RING domain deleted (Arabidopsis thaliana) (UniProt Q9LQX2)
T2 sequence: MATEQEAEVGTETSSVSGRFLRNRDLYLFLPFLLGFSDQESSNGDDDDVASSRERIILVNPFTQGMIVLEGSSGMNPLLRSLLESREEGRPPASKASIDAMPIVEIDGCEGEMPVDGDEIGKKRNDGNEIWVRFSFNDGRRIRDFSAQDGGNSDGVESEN


Legend:
[1] = biological target: T1, … TO RED LIGHT REDUCED 1 (SRR1) fused to GFP (Arabidopsis thaliana); experiment: co-IP; SRR1-GFP (or GFP alone) and FLAG-MPSR1ΔRING co-infiltrated into N. benthamiana leaves, harvested after 2 days; native extract (50 mM Tris-HCl pH 7.5, 100 mM NaCl, 10% glycerol, 1 mM DTT); IP with GFP-Trap beads, four washes with 0.05% Triton X-100; blot with α-FLAG
[2] = biological target: T2, 3xFLAG-tagged MPSR1 with the RING domain deleted (Arabidopsis thaliana); experiment: co-IP; reverse co-IP from N. benthamiana native extract: FLAG-MPSR1ΔRING pulled down with α-FLAG beads; blot with α-GFP antibody

Binder | binding [1] | binding [2]
3xFLAG-tagged MPSR1 with the RING domain deleted (domain or fragment, UniProt Q9LQX2) MATEQEAEVGTETSSVSGRFLRNRDLYLFLPFLLGFSDQESSNGDDDDVASSRERIILVNPFTQGMIVLEGSSGMNPLLRSLLESREEGRPPASKASIDAMPIVEIDGCEGEMPVDGDEIGKKRNDGNEIWVRFSFNDGRRIRDFSAQDGGNSDGVESEN | binds | –
… TO RED LIGHT REDUCED 1 (SRR1) fused to GFP (protein, UniProt Q8GWZ6 1-275) METTVKNSSSDGEWKVVLPSKGRQGRRRKPKPKGQAEEEEQPWKSDDLEIDPQRQARLKQKMEISLKKIESSSFYTAFLEQLKSPEVSNQIRLVLGSETQLQMVMYGIGSIESYESPRFQLSIAILMKREFDWVGDNIEVFDPVLSATESSYLESLGCSVLSVNEQARREALKPTLFFMPHCEANLYSNLLQANWRMDRLSKIALFGNSFQMYEEQVSFDAEVICATKRIIAAQRVTSEFAIETESDDYFAAFHDSSWHFFSSGIDSELPLFVSD | – | binds
